Consider two compounds from patent US20150118736A1, “METHOD OF DEGRADING ORGANIC COMPOUNDS” (Agency for Science, Technology and Research, priority 2012, published 2015).

One data set relates to Amorphotheca resinae ZN1. The following applies: 25 °C, detoxification time 96 h, cited from earlier work.
In another data set the test system is Enterobacter sp. FDS8. In words: Detoxification of furfural and HMF in lignocellulose hydrolysate by Enterobacter sp. FDS8 cells (HPLC). The settings on record: for concentration in lignocellulose hydrolysate after detoxification: 3 h, 3.4 g/L cells, 30 °C.
The test system of data set [1] is Ureibacillus thermosphaericus. The settings on record: Table 4; 50 °C, detoxification time 24 h; cited from earlier work.
[2] abbreviates: Table 7, consecutive detoxification step 1.
[3] abbreviates: Table 4, detoxification temperature 30 °C, detoxification time 3 h.

Read-outs that look alike come from different tables or passages of the source.

`CC(=O)O` [Acetic acid, acetic acid]: the degradation rate in the data set with Amorphotheca resinae ZN1 (Table 6) is on record as 20 mg/L/h. The “concentration in lignocellulose hydrolysate after detoxification” value in the data set with Enterobacter sp. FDS8 (Table 2, 200 mL hydrolysate) was determined as 5.46 g/L; in the data set on Enterobacter sp. FDS8 (Table 3, 20 ml hydrolysate) it was 6.76 g/L; in the data set with Enterobacter sp. FDS8 (setting [2]) it was 5.21 g/L.
On to `O=Cc1ccco1` [Furfural, 2-furaldehyde], for which the Specific degradation rate in data set [1] is 4 mg/g cell/h; in the data set on Enterobacter sp. FDS8 (setting [3]), 130 mg/g cell/h. The degradation rate in data set [1] is 15 mg/L/h; in the data set with Amorphotheca resinae ZN1 (Table 4), 6 mg/L/h; with Enterobacter sp. FDS8 (Control (without nitrogen resource)), 313 ± 74 mg/L/h; in the data set on Enterobacter sp. FDS8 (NaNO3 5 g/L + (NH4)2SO4 5 g/L), 160 ± 26 mg/L/h; in the data set on Enterobacter sp. FDS8 (Potato extract 10 g/L), 360 ± 62 mg/L/h; in the data set on Enterobacter sp. FDS8 (setting [3]) it was 537 mg/L/h. The degradation rate in the data set with Enterobacter sp. FDS8 (Yeast extract 10 g/L) is 370 ± 62 mg/L/h; with Enterobacter sp. FDS8 (inoculum size of 4.6 g/L (FIG. 4)), 537 mg/L/h. The “concentration in lignocellulose hydrolysate after detoxification” value turned out to be 0 g/L in the data set with Enterobacter sp. FDS8 (Table 2, 200 mL hydrolysate); 0 g/L in the data set with Enterobacter sp. FDS8 (Table 3, 20 ml hydrolysate); 0 g/L with Enterobacter sp. FDS8 (setting [2]).
